Among the data in publication doi:10.1101/2024.11.06.622233 are binding values, retold here.

By UniProt entry, the sequences of proteins in these tests, tags left out.
UniProt Q64331: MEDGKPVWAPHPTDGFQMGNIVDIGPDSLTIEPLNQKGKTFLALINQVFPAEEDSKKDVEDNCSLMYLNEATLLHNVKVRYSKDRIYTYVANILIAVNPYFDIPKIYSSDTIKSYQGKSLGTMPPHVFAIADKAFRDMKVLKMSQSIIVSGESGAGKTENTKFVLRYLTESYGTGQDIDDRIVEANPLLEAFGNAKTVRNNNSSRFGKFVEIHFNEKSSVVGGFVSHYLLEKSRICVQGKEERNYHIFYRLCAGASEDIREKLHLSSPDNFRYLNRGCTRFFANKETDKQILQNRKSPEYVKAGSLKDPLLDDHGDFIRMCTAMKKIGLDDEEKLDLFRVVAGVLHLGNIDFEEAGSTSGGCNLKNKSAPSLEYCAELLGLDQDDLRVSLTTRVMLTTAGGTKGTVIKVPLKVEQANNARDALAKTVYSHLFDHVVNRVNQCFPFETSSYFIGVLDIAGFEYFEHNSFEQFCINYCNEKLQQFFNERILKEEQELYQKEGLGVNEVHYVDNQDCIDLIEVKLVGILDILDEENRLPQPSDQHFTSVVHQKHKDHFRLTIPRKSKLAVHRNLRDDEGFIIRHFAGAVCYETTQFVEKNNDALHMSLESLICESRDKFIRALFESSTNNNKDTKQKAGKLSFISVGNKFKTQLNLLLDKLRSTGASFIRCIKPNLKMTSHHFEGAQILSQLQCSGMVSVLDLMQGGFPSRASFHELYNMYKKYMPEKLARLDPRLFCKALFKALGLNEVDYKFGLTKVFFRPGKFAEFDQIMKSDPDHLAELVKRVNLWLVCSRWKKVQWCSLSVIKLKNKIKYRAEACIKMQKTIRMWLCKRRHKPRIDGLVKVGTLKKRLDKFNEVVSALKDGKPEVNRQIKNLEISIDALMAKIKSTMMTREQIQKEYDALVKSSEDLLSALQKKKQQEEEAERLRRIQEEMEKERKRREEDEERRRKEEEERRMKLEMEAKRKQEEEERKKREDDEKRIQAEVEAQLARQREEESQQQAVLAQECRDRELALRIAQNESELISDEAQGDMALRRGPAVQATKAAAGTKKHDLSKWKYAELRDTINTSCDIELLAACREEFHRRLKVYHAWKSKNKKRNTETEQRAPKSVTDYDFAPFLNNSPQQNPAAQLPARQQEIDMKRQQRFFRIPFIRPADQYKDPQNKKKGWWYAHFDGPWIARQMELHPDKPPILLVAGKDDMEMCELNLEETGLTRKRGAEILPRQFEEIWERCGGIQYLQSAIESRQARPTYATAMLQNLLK
UniProt Q61879: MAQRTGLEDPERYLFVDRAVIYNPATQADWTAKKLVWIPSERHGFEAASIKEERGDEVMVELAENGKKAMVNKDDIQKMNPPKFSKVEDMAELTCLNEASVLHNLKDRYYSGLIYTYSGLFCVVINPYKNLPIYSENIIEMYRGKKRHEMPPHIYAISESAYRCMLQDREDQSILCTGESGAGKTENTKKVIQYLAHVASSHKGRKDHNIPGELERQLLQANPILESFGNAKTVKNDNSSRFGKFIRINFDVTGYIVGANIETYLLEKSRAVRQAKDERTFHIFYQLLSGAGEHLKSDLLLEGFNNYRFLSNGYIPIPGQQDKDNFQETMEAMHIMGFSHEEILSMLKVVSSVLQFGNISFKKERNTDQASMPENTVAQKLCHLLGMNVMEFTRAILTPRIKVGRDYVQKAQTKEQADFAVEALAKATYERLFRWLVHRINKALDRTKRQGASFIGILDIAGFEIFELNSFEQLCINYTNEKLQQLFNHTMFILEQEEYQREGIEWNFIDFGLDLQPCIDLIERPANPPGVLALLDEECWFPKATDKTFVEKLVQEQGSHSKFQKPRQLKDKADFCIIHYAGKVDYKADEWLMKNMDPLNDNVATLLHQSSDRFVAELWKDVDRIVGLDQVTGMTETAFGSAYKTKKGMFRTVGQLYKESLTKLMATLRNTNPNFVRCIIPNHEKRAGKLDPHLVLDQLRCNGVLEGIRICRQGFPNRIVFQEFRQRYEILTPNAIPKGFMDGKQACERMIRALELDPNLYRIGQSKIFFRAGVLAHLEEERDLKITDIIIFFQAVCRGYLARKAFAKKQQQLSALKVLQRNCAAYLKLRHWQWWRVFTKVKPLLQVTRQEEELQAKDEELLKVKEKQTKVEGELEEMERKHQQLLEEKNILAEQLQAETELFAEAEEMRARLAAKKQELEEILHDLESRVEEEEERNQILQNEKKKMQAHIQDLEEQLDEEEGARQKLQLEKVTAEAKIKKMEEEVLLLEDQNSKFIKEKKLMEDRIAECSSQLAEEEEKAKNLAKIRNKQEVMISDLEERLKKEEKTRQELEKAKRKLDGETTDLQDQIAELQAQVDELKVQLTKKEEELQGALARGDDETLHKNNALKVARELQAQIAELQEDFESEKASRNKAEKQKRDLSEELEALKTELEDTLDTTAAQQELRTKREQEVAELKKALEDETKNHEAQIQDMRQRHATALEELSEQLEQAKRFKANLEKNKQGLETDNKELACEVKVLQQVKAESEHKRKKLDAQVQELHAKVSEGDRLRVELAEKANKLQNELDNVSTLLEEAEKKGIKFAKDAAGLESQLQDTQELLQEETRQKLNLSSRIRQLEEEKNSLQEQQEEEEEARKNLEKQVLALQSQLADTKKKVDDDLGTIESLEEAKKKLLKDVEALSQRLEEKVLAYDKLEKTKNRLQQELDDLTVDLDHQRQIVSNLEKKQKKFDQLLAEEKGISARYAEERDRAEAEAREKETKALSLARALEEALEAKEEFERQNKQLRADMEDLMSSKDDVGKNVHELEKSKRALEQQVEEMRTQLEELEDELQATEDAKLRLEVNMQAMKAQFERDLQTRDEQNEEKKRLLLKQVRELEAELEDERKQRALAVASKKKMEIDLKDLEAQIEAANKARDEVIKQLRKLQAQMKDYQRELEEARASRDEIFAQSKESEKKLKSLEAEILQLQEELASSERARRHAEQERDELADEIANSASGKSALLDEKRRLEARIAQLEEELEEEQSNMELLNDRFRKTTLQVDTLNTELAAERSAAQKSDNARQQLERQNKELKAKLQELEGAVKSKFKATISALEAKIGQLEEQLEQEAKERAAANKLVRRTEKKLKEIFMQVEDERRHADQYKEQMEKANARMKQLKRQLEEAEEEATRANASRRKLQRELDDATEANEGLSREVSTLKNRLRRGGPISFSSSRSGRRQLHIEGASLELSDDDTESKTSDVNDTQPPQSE
UniProt P17742: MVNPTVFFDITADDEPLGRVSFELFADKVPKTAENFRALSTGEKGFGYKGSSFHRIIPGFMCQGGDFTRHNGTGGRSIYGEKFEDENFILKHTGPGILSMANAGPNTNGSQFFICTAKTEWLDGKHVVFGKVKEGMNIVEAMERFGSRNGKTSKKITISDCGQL
UniProt Q9D0R8: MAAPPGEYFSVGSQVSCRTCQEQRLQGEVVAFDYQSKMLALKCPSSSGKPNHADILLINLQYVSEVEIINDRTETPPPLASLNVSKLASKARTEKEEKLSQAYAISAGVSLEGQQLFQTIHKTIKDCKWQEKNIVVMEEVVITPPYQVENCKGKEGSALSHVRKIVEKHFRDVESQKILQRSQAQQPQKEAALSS
UniProt Q6URW6: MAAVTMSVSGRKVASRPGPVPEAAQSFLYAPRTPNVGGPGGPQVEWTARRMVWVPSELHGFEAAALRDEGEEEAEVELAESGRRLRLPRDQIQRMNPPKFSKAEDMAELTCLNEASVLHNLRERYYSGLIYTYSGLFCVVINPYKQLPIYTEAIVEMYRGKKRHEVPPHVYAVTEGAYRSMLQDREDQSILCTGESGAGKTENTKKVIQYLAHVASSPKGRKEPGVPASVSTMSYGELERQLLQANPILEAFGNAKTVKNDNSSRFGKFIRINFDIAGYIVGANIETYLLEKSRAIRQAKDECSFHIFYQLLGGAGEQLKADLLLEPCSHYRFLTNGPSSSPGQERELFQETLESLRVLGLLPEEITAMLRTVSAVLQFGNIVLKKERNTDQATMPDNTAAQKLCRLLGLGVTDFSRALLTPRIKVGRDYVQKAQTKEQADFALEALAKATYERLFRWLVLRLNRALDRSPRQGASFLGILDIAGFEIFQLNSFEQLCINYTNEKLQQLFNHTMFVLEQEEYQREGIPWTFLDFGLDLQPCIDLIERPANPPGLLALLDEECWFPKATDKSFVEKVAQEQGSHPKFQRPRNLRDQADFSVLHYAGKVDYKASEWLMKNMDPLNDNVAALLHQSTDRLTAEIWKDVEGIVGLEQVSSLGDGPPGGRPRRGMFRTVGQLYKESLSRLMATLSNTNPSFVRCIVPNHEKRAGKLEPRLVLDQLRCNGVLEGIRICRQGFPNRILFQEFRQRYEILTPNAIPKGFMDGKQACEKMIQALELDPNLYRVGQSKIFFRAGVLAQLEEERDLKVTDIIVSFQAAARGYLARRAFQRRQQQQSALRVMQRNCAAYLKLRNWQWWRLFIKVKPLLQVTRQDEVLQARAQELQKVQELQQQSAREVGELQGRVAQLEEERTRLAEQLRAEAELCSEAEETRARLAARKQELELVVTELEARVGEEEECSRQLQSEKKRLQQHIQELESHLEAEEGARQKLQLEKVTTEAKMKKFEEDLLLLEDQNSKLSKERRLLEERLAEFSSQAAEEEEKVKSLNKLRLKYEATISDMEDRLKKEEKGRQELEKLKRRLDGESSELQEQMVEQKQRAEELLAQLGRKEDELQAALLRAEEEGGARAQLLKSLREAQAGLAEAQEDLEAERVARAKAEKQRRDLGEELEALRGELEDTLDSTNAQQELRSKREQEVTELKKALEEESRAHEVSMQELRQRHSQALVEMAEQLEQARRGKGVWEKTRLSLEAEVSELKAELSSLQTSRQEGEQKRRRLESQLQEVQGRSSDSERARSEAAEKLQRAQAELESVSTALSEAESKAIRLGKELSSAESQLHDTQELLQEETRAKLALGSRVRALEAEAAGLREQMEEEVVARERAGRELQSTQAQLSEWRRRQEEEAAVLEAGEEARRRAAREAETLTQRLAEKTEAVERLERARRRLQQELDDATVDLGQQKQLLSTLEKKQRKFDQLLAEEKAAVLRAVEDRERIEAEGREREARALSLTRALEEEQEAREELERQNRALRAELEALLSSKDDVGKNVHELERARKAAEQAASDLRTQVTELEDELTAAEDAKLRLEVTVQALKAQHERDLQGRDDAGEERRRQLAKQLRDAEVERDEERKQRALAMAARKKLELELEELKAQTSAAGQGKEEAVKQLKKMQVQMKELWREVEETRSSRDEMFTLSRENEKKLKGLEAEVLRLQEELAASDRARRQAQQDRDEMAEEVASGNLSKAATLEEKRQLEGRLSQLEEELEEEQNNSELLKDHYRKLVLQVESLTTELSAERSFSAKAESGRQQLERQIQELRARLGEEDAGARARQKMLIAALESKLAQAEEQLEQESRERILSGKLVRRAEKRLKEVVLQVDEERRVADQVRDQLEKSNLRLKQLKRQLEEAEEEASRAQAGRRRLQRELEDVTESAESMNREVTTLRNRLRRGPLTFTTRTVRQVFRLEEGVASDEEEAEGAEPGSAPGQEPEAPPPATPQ

Results are given in words; binding and its absence hold for the method and conditions named. Binding seen in cells or lysates may run through a third protein. A yes stands for co-enrichment or nearness to the bait. Other partners may have been found.

This test addresses T1, Ataxin-2 (wildtype, mouse) (mouse (endogenous in cerebellum)) (UniProt O70305).
T1 sequence: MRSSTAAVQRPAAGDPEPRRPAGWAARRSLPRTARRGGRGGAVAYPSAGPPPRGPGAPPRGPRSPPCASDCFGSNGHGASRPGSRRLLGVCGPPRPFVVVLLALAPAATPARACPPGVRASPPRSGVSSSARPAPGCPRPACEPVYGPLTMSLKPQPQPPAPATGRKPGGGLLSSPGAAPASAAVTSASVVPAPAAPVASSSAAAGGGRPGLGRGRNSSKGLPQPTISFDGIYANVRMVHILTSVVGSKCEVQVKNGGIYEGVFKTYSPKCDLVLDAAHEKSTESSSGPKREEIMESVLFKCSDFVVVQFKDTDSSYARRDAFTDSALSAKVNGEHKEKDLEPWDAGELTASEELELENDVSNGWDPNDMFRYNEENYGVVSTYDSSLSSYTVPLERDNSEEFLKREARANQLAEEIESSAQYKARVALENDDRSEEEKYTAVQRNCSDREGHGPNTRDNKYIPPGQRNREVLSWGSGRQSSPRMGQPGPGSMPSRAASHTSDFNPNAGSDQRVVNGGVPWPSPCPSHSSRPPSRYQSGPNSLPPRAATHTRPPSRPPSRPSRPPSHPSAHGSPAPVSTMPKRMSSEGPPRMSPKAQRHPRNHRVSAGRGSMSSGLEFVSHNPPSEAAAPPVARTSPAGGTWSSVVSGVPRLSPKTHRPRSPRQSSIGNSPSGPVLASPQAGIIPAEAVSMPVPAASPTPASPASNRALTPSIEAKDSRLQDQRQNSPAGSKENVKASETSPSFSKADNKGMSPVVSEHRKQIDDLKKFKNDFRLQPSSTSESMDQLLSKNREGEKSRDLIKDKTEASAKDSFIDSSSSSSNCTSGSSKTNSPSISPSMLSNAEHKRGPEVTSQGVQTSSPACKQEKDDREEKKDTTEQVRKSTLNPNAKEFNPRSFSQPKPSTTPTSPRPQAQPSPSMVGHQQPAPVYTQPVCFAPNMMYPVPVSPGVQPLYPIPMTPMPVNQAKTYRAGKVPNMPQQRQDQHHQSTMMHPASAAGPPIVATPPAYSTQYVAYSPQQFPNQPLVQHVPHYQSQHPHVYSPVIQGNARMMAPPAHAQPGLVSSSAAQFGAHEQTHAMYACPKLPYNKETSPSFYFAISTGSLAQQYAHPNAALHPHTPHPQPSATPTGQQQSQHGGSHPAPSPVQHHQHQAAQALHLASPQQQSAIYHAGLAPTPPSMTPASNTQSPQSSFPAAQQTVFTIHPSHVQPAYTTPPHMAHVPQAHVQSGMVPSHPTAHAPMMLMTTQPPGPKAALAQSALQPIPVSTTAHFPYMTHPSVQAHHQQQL
The test is described as follows: affinity purification with mass spectrometry.

For “unconventional myosin VI (from UniProt Q64331 1-1262)”, the binding result was “binds”.

On to MYH10 (from UniProt Q61879 1-1976), for which the binding entry was “binds”.

With “peptidyl prolyl isomerase A (from UniProt P17742 1-164)”, the binding result is reported as “binds”.

As to LSM12 (from UniProt Q9D0R8 1-195), the binding entry is recorded as “binds”.

Consider MYH14 (from UniProt Q6URW6 1-2000), for which the binding entry is given as “binds”.

B1: SHANK2 (protein, UniProt Q80Z38 1-1476)
chain: MKSLLNAFTKKEVPFREAPAYSNRRRRPPNTLAAPRVLLRSNSDNNLNAGAPEWAVCSAATSHRSLSPQLLQQTPSKPDGATKSLGSYTPGPRSRSPSLNRLGGTAEDGKRTQPHWHVGSPFTPGANKDSLSTFEYPGPRRKLYSAVPGRLFVAVKPYQPQVDGEIPLHRGDRVKVLSIGEGGFWEGSARGHIGWFPAECVEEVQCKPRDSQAETRADRSKKLFRHYTVGSYDSFDAASDCIIEDKTVVLQKKDNEGFGFVLRGAKADTPIEEFTPTPAFPALQYLESVDEGGVAWQAGLRTGDFLIEVNNENVVKVGHRQVVNMIRQGGNHLILKVVTVTRNLDPDDTARKKAPPPPKRAPTTALTLRSKSMTAELEELGLSLVDKASVRKKKDKPEEIVPASKPSRTAENVAIESRVATIKQRPTSRCFPAASDVNSVYERQGIAVMTPTVPGSPKGPFLGLPRGTMRRQKSIDSRIFLSGITEEERQFLAPPMLKFTRSLSMPDTSEDIPPPPQSVPPSPPPPSPTTYNCPRSPTPRVYGTIKPAFNQNPVVAKVPPATRSDTVATMMREKGMFYRRELDRFSLDSEDVYSRSPAPQAAFRTKRGQMPENPYSEVGKIASKAVYVPAKPARRKGVLVKQSNVEDSPEKTCSIPIPTIIVKEPSTSSSGKSSQGSSMEIDPQATEPGQLRPDDSLTVSSPFAAAIAGAVRDREKRLEARRNSPAFLSTDLGDEDVGLGPPAPRMQASKFPEEGGFGDEDETEQPLLPTPGAAPRELENHFLGGGEAGAQGEAGGPLSSTSKAKGPESGPAAPLKSSSPAGPENYVHPLTGRLLDPSSPLALALSARDRAMQESQQGHKGEAPKADLNKPLYIDTKMRPSVESGFPPVTRQNTRGPLRRQETENKYETDLGKDRRADDKKNMLINIVDTAQQKSAGLLMVHTVDVPMAGPPLEEEEDREDGDTKPDHSPSTVPEGVPKTEGALQISAAPEPAVAPGRTIVAAGSVEEAVILPFRIPPPPLASVDLDEDFLFTEPLPPPLEFANSFDIPDDRAASVPALADLVKQKKNDTSQPPTLNSSQPANSTDSKKPAGISNCLPSSFLPPPESFDAVTDSGIEEVDSRSSSDHHLETTSTISTVSSISTLSSEGGESMDTCTVYADGQAFVVDKPPVPPKPKMKPIVHKSNALYQDTLPEEDTDGFVIPPPAPPPPPGSAQAGVAKVIQPRTSKLWGDVPEVKSPILSGPKANVISELNSILQQMNRGKSVKPGEGLELPVGAKSANLAPRSPEVMSTVSGTRSTTVTFTVRPGTSQPITLQSRPPDYESRTSGPRRAPSPVVSPTELSKEILPTPPPPSATAASPSPTLSDVFSLPSQSPAGDLFGLNPAGRSRSPSPSILQQPISNKPFTTKPVHLWTKPDVADWLESLNLGEHKETFMDNEIDGSHLPNLQKEDLIDLGVTRVGHRMNIERALKQLLDR
For B1, the binding result was “binds”.

B2: STAU1 (protein, UniProt Q9Z108 1-487)
chain: MYKPVDPHSRMQSTYSYGMRGGAYPPRYFYPFPVPPLLYQVELSVGGQQFNGKGKMRPPVKHDAPARALRTLQSEPLPERLEVNGREAEEENLNKSEISQVFEIALKRNLPVNFEVARESGPPHMKNFVTRVSVGEFVGEGEGKSKKISKKNAARAVLEQLRRLPPLPAVERVKPRIKKKSQPTCKTAPDYGQGMNPISRLAQIQQAKKEKEPEYMLLTERGLPRRREFVMQVKVGHHTAEGVGTNKKVAKRNAAENMLEILGFKVPQAQPAKPALKSEEKTPVKKPGDGRKVTFFEPSPGDENGTSNKDEEFRMPYLSHQQLPAGILPMVPEVAQAVGVSQGHHTKDFTRAAPNPAKATVTAMIARELLYGGTSPTAETILKSNISSGHVPHGPRTRPSEQLYYLSRAQGFQVEYKDFPKNNKNECVSLINCSSQPPLVSHGIGKDVESCHDMAALNILKLLSELDQQSTEMPRTGNGPVSACGRC
As for B2, the binding result is recorded as “binds”.
